Reference: article PMC9714148
No constants are given. Whether binding was seen depends on the method and setting. Binding seen in cells or lysates may run through a third protein. Some results given as binding are weak or reduced against the parent protein; the word gives no strength.

Sequences of proteins named here, by UniProt entry; tags and fusion partners are left off.
UniProt P13864: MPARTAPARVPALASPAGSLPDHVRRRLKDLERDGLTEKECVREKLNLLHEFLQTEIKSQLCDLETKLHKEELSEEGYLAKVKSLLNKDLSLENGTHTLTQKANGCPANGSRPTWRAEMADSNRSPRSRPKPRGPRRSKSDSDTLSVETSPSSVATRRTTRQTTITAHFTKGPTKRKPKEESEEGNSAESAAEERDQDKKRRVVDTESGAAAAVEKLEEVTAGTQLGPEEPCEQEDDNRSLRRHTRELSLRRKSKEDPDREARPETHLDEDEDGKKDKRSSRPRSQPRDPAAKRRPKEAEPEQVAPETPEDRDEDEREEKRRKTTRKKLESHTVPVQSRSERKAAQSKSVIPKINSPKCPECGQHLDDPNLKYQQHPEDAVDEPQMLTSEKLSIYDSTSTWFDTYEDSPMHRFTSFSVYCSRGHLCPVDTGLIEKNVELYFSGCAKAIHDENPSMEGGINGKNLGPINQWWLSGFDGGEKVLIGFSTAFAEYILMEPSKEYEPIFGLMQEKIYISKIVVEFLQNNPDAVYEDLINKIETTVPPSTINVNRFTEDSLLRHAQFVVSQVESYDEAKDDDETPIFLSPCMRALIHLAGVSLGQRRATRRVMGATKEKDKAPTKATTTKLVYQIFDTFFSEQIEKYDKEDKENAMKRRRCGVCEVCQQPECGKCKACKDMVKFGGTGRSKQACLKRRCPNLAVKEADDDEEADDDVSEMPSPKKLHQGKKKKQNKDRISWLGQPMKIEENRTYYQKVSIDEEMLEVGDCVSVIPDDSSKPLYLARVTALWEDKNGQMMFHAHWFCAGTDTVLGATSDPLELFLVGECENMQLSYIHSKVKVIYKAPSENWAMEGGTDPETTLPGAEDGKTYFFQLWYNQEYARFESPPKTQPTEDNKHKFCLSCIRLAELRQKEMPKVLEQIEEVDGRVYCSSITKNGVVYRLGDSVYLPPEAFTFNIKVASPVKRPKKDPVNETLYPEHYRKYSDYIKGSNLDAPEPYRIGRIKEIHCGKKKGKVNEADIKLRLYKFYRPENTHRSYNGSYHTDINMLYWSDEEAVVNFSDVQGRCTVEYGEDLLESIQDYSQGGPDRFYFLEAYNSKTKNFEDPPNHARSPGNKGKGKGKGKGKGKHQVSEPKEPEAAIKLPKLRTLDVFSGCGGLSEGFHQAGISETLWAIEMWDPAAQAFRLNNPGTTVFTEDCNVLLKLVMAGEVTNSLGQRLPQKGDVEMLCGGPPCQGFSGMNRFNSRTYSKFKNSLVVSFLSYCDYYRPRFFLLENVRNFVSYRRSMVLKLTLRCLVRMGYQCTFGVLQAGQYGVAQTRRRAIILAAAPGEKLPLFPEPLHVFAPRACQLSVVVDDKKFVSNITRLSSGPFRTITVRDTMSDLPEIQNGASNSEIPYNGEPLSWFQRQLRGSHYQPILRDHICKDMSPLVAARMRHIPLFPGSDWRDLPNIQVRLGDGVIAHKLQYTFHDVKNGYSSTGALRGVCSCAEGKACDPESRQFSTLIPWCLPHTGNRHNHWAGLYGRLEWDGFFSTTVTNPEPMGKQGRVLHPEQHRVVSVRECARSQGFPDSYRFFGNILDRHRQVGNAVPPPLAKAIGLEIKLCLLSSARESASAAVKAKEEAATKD

Experiments:
[1] = target: DNMT1 (mouse (endogenous in C2C12)) (UniProt P13864); assay: co-IP; endogenous proteins in lysate of C2C12 cells differentiated for 4 d; IP with 5 ug antibody overnight at 4 °C, Protein A/G PLUS-Agarose 2 h at 4 °C, Western blot; DNA methylases as bait and, reversed, RNA methylases as bait; nonspecific IgG as control
[2] = target: DNMT3B (mouse (endogenous in C2C12)) (UniProt O88509); assay: as above

Row | Substance | binding [1] | binding [2]
1 | DNMT3B (from UniProt O88509 1-859) (enzyme) | binds | –
2 | METTL3 (from UniProt Q8C3P7 1-580) (enzyme) | binds | binds
